PubChem BioAssay AID743121 | NCATS – 2013

- Assay: 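Knock-downs that sensitise breast cancer cells to camptothecin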 (primary screen)
- System: MDA-MB-231 cells, a human breast cancer line
- Reagent: single siRNA against human genes, 20 nM siRNA (0.8 pmol per well)
- Time to read-out: 120 h (drug added 48 h after transfection, read 72 h later)
- Challenge: camptothecin 20 nM (about EC30) for 72 h; vehicle 0.1% DMSO in parallel plates
- Measured: 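Cell viability by ATP luminescence (CellTiter-Glo) as % of non-targeting siRNA wells, and the log2 ratio of viability without drug over viability with camptothecin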
- Scale: log2 vehicle/camptothecin viability: higher = stronger sensitisation to camptothecin; viability with camptothecin and viability without drug: higher = more viable cells
- Call rule: 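Active genes have an RSA gene-level p-value below 0.001, computed from the ratios of their separate siRNAs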
The whole screen tested about 26,000 reagents; below is a part drawn at random. 167 of them (0.63%) were called active. 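Calls are per gene from RSA p-values that are not deposited; an individual active-marked siRNA can sensitise only weakly.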 Reagent sequences are not shown.

The first 2 entries as a preview:
target gene | PubChem SID | log2 vehicle/camptothecin viability | viability with camptothecin (% of control) | viability without drug (% of control) | activity call
LITAF | SID164404260 | -0.306 | 84.4 | 68.3 | inactive
LITAF | SID164404261 | -0.263 | 68.4 | 57 | inactive

Main list, from the start:
target gene | PubChem SID | log2 vehicle/camptothecin viability | viability with camptothecin (% of control) | viability without drug (% of control) | activity call
LITAF | SID164404260 | -0.306 | 84.4 | 68.3 | inactive
LITAF | SID164404261 | -0.263 | 68.4 | 57 | inactive
LITAF | SID164404262 | -0.27 | 82 | 68 | inactive
LITAF | SID164404264 | -0.207 | 85.9 | 74.4 | inactive
LAMC1 | SID164373503 | -0.384 | 124 | 94.7 | inactive
LAMC1 | SID164373504 | -0.416 | 76 | 56.9 | inactive
LAMC1 | SID164373506 | -0.346 | 54.5 | 42.9 | inactive
SSX2 | SID164389986 | -0.117 | 89 | 82.1 | inactive
SSX2 | SID164389987 | -0.402 | 99.4 | 75.2 | inactive
SSX2 | SID164389988 | -0.164 | 114 | 102 | inactive
SSX2 | SID174316049 | -0.449 | 94.1 | 69 | inactive
MOS | SID164375969 | 0.769 | 42.9 | 73 | inactive
MOS | SID164375970 | -0.105 | 65.4 | 60.8 | inactive
MOS | SID164375971 | -0.297 | 92.1 | 75 | inactive
MOS | SID164375973 | 0.321 | 82.9 | 104 | inactive
GJB2 | SID164366609 | -0.381 | 83.9 | 64.4 | inactive
GJB2 | SID164366610 | 0.129 | 91.1 | 99.6 | inactive
GJB2 | SID164366611 | -0.0266 | 54.2 | 53.2 | inactive
GJB2 | SID164366615 | 0.0305 | 58.9 | 60.1 | inactive
PER1 | SID164380172 | -0.0169 | 80.7 | 79.7 | inactive
PER1 | SID164380173 | -0.155 | 79 | 70.9 | inactive
PER1 | SID164380174 | -0.12 | 45.9 | 42.2 | inactive
PER1 | SID164380176 | 0.0497 | 23.7 | 24.6 | inactive
ACP6 | SID164472593 | -0.135 | 79.5 | 72.4 | inactive
ACP6 | SID164472596 | -0.142 | 67.5 | 61.2 | inactive
ACP6 | SID164472597 | -0.465 | 102 | 73.6 | inactive
ACP6 | SID164472599 | 0.0333 | 36.4 | 37.3 | inactive
CHRM2 | SID164358365 | 0.311 | 21.3 | 26.4 | inactive
CHRM2 | SID164358366 | -0.218 | 85.8 | 73.7 | inactive
CHRM2 | SID164358369 | -0.649 | 46.6 | 29.7 | inactive
CHRM2 | SID164358371 | -0.326 | 46.5 | 37.1 | inactive
CD163L1 | SID164614410 | -0.192 | 62 | 54.3 | inactive
CD163L1 | SID164614412 | 0.358 | 58.4 | 74.8 | inactive
CD163L1 | SID164614413 | -0.0887 | 79.7 | 74.9 | inactive
CD163L1 | SID164614415 | 0.13 | 90.6 | 99.1 | inactive
IFNA6 | SID164370811 | -0.00141 | 93.7 | 93.6 | inactive
IFNA6 | SID164370813 | -0.0168 | 86.7 | 85.7 | inactive
IFNA6 | SID164370814 | -0.296 | 99.2 | 80.8 | inactive
IFNA6 | SID164370815 | 0.0512 | 71.7 | 74.2 | inactive
TAP1 | SID164390819 | 0.204 | 92.9 | 107 | inactive
TAP1 | SID164390821 | -0.255 | 67.4 | 56.5 | inactive
TAP1 | SID164390822 | -0.545 | 97.6 | 66.9 | inactive
TAP1 | SID164390824 | 0.391 | 30.9 | 40.5 | inactive
TINAGL1 | SID164501330 | -0.454 | 91.8 | 67 | inactive
TINAGL1 | SID164501333 | -0.315 | 57.2 | 45.9 | inactive
TINAGL1 | SID164501334 | -0.449 | 92 | 67.4 | inactive
TINAGL1 | SID164501336 | -0.224 | 97.8 | 83.7 | inactive
